Measurements as given in patent publication US20200255533A1.
These are yes or no findings as the source states them, for the method shown. Some results given as binding are weak or reduced against the parent protein; the word gives no strength.

By UniProt entry, the sequences of proteins in these tests, tags left out. Residues count along the entry.
UniProt Q5VWK5, residues 24-355: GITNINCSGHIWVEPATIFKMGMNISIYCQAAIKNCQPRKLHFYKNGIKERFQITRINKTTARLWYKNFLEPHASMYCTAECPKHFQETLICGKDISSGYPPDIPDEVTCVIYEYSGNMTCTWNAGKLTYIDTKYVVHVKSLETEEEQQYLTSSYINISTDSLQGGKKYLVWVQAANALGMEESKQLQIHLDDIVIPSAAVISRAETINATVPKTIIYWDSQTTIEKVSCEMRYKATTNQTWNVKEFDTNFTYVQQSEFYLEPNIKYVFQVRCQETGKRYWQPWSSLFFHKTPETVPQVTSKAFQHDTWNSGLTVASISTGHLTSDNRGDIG

What was measured:
[1] = biological target: human interleukin-23 receptor (IL23R) (human) (UniProt Q5VWK5); assay: SPR, scFv on human IL23R; worded comparison of off-rates; capped or uncapped not said
[2] = biological target: human interleukin-23 receptor (IL23R) (human) (UniProt Q5VWK5); assay: SPR, scFv on human IL23R; worded comparison of on-rates; capped or uncapped not said

Binder	binding [1]	binding [2]
VK3/VH1A consensus λ-capped (human IL23R specific scFv) (scFv) scFv: DIVLTQSPATLSLSPGERATLSCQASENIYSFLAWYQQKPGQAPRLLIYSASKLAAGVPARFSGSGSGTDFTLTISSLEPEDFAVYYCQQTNRYSNPDIYNVFGGGTKLTVLGGGGGSGGGGSGGGGSGGGGSQVQLVQSGAEVKKPGSSVKVSCKASGIDFNSNYYMCWVRQAPGQGLEWMGCIYVGSHVNTYYANWAKGRVTITADESTSTAYMELSSLRSEDTAVYYCATSGSSVLYFKFWGQGTLVTVSS	binds	–
VK3/VH1A consensus (uncapped; human IL23R specific scFv) (scFv) scFv: DIVLTQSPATLSLSPGERATLSCQASENIYSFLAWYQQKPGQAPRLLIYSASKLAAGVPARFSGSGSGTDFTLTISSLEPEDFAVYYCQQTNRYSNPDIYNVFGQGTKVEIKRGGGGSGGGGSGGGGSGGGGSQVQLVQSGAEVKKPGSSVKVSCKASGIDFNSNYYMCWVRQAPGQGLEWMGCIYVGSHVNTYYANWAKGRVTITADESTSTAYMELSSLRSEDTAVYYCATSGSSVLYFKFWGQGTLVTVSS	binds	–
VK3/VH5 consensus λ-capped (human IL23R specific scFv) (scFv) scFv: DIVLTQSPATLSLSPGERATLSCQASENIYSFLAWYQQKPGQAPRLLIYSASKLAAGVPARFSGSGSGTDFTLTISSLEPEDFAVYYCQQTNRYSNPDIYNVFGGGTKLTVLGGGGGSGGGGSGGGGSGGGGSEVQLVQSGAEVKKPGESLKISCKGSGIDFNSNYYMCWVRQMPGKGLEWMGCIYVGSHVNTYYANWAKGQVTISADKSISTAYLQWSSLKASDTAMYYCATSGSSVLYFKFWGQGTLVTVSS	binds	–
VK3/VH5 consensus (uncapped; human IL23R specific scFv) (scFv) scFv: DIVLTQSPATLSLSPGERATLSCQASENIYSFLAWYQQKPGQAPRLLIYSASKLAAGVPARFSGSGSGTDFTLTISSLEPEDFAVYYCQQTNRYSNPDIYNVFGQGTKVEIKRGGGGSGGGGSGGGGSGGGGSEVQLVQSGAEVKKPGESLKISCKGSGIDFNSNYYMCWVRQMPGKGLEWMGCIYVGSHVNTYYANWAKGQVTISADKSISTAYLQWSSLKASDTAMYYCATSGSSVLYFKFWGQGTLVTVSS	binds	–
VK1/VH3 consensus λ-capped (human IL23R specific scFv) (scFv) scFv: DIQMTQSPSSLSASVGDRVTITCQASENIYSFLAWYQQKPGKAPKLLIYSASKLAAGVPSRFSGSGSGTDFTLTISSLQPEDFATYYCQQTNRYSNPDIYNVFGGGTKLTVLGGGGGSGGGGSGGGGSGGGGSEVQLVESGGGLVQPGGSLRLSCAASGIDFNSNYYMCWVRQAPGKGLEWVSCIYVGSHVNTYYANWAKGRFTISRDNSKNTLYLQMNSLRAEDTAVYYCATSGSSVLYFKFWGQGTLVTVSS	binds	–
VK1/VH3 consensus (uncapped; human IL23R specific scFv) (scFv) scFv: DIQMTQSPSSLSASVGDRVTITCQASENIYSFLAWYQQKPGKAPKLLIYSASKLAAGVPSRFSGSGSGTDFTLTISSLQPEDFATYYCQQTNRYSNPDIYNVFGQGTKVEIKRGGGGSGGGGSGGGGSGGGGSEVQLVESGGGLVQPGGSLRLSCAASGIDFNSNYYMCWVRQAPGKGLEWVSCIYVGSHVNTYYANWAKGRFTISRDNSKNTLYLQMNSLRAEDTAVYYCATSGSSVLYFKFWGQGTLVTVSS	binds	–
VK1/VH4 consensus λ-capped (human IL23R specific scFv) (scFv) scFv: DIQMTQSPSSLSASVGDRVTITCQASENIYSFLAWYQQKPGKAPKLLIYSASKLAAGVPSRFSGSGSGTDFTLTISSLQPEDFATYYCQQTNRYSNPDIYNVFGGGTKLTVLGGGGGSGGGGSGGGGSGGGGSQVQLQESGPGLVKPSETLSLTCTVSGIDFNSNYYMCWIRQPPGKGLEWIGCIYVGSHVNTYYANWAKGRVTISVDTSKNQFSLKLSSVTAADTAVYYCATSGSSVLYFKFWGQGTLVTVSS	–	binds
VK1/VH4 consensus (uncapped; human IL23R specific scFv) (scFv) scFv: DIQMTQSPSSLSASVGDRVTITCQASENIYSFLAWYQQKPGKAPKLLIYSASKLAAGVPSRFSGSGSGTDFTLTISSLQPEDFATYYCQQTNRYSNPDIYNVFGQGTKVEIKRGGGGSGGGGSGGGGSGGGGSQVQLQESGPGLVKPSETLSLTCTVSGIDFNSNYYMCWIRQPPGKGLEWIGCIYVGSHVNTYYANWAKGRVTISVDTSKNQFSLKLSSVTAADTAVYYCATSGSSVLYFKFWGQGTLVTVSS	–	binds
